No constants are given. Whether binding was seen depends on the method and setting. Some results given as binding are weak or reduced against the parent protein; the word gives no strength.

Protein sequences, listed by entry. Tags and fused reporters are not part of them. Lines headed by an entry give the natural chain unless they say otherwise; changes in a name come on top. Residues count along the entry.
UniProt Q38SD2, residues 20-2015: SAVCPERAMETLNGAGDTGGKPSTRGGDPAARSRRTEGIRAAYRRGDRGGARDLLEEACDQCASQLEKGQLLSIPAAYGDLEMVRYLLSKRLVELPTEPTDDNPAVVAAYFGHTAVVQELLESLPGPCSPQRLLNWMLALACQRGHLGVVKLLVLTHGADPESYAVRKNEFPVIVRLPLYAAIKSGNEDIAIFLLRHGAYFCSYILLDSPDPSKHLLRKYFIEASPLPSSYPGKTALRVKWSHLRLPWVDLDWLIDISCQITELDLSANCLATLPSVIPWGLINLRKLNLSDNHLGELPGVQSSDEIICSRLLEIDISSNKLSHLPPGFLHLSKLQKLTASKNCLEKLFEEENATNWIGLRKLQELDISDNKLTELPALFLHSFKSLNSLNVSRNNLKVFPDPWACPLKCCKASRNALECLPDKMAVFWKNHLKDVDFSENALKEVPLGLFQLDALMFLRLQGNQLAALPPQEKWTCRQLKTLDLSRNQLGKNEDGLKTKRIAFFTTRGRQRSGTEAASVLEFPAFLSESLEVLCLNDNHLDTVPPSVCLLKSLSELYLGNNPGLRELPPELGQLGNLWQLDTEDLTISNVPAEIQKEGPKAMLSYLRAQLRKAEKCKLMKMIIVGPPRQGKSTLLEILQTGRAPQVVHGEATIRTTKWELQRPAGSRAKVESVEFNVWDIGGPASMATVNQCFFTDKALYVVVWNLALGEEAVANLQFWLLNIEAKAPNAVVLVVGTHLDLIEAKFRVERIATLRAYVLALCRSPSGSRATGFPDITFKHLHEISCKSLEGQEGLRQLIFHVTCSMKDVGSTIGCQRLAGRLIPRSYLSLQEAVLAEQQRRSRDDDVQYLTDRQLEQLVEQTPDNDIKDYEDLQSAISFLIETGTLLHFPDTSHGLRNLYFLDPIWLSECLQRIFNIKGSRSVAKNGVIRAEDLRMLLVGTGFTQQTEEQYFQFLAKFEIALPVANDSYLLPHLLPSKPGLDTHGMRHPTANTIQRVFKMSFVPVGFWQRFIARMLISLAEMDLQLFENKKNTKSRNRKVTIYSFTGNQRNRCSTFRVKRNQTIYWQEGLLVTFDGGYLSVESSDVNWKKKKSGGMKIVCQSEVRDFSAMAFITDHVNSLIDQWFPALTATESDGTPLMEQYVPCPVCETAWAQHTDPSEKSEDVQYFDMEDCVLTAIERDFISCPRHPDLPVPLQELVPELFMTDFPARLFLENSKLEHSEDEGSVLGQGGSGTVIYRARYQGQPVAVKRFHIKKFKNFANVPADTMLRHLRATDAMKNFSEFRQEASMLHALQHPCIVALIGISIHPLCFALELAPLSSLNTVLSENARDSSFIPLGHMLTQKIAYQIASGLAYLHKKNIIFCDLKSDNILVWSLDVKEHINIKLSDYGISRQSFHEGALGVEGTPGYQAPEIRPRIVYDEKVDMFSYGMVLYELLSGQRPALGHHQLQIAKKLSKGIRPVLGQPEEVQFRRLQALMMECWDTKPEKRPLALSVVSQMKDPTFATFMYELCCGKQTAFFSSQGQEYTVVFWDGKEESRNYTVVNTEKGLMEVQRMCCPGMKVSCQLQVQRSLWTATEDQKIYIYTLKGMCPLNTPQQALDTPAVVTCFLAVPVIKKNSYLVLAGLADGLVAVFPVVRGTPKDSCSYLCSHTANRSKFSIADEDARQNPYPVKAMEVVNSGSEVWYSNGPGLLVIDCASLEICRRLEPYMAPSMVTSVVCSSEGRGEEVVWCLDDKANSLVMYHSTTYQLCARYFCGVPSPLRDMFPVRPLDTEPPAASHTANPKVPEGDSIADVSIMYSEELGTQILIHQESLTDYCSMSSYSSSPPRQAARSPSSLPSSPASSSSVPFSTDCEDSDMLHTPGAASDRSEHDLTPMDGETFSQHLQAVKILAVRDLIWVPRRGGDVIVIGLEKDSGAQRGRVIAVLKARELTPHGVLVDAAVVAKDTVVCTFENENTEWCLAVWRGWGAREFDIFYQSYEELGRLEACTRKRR
UniProt P51149: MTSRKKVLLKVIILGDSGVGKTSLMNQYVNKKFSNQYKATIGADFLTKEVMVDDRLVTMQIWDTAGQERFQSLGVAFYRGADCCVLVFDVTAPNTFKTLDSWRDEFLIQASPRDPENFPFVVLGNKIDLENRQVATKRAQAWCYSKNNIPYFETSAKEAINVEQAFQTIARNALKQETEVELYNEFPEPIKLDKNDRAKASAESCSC

This experiment addresses LRRK1(Δ1–19) (human) (UniProt Q38SD2). Kind of experiment: cryo-EM structure; 2 μM LRRK1(Δ1–19), 3 μM Rab7a, 1 mM GTP and 1 mM AMPcPP; both purified.

“LRRK1(Δ1–19) (from UniProt Q38SD2-1 20-2015) (domain or fragment)”: the binding result was “binds weakly”.

Turning to Rab7a (from UniProt P51149 1-207), the binding result is recorded as “no binding (tested: 3 μM Rab7a with 2 μM LRRK1(Δ1–19))”.

Values taken from publication PMC10643122.
